Test results published in the supplement of paper PMC12823440, “Inhibitors supercharge kinase turnover through native proteolytic circuits” (Nature, 2025).
Structures can show the parent of a compound that is named as a salt. The list shows a part of the results. Hit calls seldom repeat between salt and free forms of one compound.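 Kinases, fused to nanoluciferase, were expressed in K562 cells; luminescence was measured every 4 h from 2 to 18 h as percent of control (DMSO = 100%, positive control = 0%). A time point is decreased if signal falls significantly (2 sigma). Hits were called by the authors by a rule that is not shown; the count of time points alone does not decide it.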

Amino acid sequences for entries named in this document (tags omitted). A change or cut given only in a name is not applied to a line headed by its entry.
UniProt P00519, whole entry: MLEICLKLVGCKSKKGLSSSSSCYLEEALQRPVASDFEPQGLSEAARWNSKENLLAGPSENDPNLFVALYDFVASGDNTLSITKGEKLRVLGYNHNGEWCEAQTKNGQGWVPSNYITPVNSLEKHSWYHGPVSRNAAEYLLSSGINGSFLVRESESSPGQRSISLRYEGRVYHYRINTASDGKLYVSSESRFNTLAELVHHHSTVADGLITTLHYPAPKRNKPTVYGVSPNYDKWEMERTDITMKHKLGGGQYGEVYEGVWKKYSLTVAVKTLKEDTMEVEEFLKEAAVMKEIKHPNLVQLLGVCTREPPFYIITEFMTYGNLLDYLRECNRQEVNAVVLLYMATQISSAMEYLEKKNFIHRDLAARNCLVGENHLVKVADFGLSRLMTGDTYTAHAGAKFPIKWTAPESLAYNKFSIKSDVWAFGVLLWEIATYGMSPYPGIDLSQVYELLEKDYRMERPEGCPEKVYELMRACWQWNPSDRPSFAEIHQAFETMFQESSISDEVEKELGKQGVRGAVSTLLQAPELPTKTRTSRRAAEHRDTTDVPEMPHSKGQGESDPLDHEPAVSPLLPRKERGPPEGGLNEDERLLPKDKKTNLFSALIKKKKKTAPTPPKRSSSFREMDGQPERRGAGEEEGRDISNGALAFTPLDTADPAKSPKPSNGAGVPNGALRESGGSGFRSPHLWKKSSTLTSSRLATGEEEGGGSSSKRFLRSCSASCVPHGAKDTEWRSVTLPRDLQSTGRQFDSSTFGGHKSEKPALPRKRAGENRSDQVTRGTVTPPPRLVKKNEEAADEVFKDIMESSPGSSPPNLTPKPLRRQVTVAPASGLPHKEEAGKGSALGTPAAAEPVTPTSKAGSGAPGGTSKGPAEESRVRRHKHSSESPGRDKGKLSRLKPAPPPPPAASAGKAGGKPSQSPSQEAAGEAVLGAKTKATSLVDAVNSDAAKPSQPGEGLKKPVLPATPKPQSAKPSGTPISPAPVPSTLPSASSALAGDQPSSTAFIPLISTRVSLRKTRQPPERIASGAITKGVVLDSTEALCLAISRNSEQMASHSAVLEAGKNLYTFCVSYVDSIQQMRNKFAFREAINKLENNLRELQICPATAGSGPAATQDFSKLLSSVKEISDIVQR
UniProt P31749: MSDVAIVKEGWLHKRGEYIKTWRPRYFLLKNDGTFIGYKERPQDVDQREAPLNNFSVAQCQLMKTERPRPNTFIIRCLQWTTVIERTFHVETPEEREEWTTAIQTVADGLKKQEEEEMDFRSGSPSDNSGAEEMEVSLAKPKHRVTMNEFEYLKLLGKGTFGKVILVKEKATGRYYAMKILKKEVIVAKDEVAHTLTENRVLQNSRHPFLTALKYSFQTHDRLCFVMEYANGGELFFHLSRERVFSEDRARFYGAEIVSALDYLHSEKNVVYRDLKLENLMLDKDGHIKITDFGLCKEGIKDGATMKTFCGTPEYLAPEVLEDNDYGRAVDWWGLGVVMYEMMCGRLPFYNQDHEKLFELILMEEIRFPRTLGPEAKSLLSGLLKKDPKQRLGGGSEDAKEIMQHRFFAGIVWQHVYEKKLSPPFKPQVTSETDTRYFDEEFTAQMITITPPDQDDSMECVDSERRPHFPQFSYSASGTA
UniProt Q9UM73: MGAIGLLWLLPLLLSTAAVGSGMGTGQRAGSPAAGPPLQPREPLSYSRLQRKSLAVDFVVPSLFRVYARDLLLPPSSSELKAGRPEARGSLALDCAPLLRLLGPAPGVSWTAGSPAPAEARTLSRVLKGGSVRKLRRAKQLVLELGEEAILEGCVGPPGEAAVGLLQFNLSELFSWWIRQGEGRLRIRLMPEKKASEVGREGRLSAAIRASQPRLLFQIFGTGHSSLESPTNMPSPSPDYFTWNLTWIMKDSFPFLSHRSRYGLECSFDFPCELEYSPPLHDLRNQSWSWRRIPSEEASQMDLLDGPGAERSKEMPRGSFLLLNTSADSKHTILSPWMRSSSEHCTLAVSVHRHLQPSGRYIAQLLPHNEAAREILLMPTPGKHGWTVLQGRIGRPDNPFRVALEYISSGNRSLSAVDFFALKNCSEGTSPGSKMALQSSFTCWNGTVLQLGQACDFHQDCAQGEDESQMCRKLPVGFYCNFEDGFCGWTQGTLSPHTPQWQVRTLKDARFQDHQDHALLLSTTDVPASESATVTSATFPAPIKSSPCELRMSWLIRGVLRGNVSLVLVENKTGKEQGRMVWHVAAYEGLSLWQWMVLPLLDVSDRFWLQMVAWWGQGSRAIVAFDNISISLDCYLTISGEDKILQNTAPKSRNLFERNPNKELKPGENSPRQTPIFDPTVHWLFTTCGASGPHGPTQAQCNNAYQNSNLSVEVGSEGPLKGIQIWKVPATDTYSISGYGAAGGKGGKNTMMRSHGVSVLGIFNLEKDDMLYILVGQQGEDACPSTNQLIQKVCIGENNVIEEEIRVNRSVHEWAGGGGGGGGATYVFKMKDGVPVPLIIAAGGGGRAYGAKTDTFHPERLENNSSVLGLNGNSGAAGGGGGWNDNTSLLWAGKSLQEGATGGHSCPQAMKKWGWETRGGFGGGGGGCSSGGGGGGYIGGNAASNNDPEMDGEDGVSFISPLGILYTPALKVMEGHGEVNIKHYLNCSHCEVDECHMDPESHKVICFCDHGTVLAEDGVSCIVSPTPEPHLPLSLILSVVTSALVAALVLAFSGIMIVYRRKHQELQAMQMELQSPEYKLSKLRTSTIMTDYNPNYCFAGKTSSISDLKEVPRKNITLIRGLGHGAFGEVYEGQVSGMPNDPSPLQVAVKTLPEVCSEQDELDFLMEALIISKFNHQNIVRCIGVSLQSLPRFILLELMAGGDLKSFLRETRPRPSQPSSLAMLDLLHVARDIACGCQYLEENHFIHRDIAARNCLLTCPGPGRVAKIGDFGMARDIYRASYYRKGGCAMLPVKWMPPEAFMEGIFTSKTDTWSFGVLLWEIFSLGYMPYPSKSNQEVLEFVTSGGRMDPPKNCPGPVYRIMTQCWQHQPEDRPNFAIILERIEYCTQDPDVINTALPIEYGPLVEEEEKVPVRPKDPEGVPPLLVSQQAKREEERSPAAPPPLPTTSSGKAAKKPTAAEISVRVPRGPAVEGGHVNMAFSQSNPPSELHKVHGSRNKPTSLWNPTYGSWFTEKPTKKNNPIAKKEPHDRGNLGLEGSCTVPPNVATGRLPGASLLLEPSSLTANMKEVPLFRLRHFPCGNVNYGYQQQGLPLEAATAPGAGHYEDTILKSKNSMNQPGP
UniProt O14965: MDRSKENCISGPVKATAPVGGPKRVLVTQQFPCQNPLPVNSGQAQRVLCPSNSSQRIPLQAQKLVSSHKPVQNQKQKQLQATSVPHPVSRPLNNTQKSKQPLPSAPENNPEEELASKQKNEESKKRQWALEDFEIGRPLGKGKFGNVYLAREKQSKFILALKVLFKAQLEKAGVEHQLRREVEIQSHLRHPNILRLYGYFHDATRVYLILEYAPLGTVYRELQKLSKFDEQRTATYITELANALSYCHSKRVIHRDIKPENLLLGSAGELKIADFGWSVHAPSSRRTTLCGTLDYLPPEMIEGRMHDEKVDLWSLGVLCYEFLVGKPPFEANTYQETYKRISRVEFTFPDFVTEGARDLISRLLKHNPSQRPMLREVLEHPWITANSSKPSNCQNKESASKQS
UniProt Q96GD4, whole entry: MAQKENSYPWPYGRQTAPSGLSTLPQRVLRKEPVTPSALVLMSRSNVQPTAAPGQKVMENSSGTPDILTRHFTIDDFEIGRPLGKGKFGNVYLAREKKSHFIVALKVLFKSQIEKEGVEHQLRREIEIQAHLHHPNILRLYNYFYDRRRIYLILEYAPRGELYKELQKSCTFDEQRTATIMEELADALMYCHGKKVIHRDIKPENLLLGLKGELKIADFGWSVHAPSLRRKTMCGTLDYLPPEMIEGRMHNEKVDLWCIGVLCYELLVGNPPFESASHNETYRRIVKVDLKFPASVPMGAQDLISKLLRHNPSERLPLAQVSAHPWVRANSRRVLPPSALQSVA
UniProt Q9UQB9: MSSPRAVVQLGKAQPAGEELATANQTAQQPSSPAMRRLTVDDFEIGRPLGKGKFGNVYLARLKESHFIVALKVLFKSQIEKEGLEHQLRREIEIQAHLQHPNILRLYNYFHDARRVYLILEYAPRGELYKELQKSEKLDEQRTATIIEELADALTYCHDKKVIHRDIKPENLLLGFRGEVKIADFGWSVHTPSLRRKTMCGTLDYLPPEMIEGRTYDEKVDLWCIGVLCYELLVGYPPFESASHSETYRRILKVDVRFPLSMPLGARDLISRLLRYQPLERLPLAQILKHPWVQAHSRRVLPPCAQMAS
UniProt P51451: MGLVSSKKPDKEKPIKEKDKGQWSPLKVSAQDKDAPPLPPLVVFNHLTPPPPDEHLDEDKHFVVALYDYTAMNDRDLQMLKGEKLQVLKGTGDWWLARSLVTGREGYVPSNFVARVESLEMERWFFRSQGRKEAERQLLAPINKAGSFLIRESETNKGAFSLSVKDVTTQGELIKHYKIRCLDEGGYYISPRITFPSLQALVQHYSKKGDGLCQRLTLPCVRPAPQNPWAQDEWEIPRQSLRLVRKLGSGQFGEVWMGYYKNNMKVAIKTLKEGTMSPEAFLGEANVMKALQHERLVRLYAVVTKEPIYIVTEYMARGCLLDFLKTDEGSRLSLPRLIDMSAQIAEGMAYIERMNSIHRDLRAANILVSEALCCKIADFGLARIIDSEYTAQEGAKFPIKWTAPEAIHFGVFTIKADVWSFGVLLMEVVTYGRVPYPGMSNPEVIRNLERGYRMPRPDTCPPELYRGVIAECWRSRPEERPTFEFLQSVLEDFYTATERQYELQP
UniProt P51813: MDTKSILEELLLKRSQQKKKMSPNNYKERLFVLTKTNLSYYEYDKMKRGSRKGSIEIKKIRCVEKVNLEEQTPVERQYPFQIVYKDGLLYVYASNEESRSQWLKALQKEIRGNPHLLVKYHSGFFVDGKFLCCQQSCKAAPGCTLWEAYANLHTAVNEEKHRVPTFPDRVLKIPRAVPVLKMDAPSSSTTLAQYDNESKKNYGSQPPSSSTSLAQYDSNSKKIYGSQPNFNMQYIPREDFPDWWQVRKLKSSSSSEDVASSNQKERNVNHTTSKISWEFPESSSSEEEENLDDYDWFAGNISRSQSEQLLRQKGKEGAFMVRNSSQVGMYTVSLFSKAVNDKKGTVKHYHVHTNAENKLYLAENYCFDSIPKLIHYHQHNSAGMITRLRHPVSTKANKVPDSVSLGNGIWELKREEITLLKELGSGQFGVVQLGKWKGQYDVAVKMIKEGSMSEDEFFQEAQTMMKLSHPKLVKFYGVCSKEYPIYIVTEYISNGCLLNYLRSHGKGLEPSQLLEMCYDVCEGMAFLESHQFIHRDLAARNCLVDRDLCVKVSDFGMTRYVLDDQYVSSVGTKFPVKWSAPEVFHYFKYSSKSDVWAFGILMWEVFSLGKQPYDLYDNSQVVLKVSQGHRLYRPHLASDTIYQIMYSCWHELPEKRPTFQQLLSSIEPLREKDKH
UniProt P15056, whole entry, looked up: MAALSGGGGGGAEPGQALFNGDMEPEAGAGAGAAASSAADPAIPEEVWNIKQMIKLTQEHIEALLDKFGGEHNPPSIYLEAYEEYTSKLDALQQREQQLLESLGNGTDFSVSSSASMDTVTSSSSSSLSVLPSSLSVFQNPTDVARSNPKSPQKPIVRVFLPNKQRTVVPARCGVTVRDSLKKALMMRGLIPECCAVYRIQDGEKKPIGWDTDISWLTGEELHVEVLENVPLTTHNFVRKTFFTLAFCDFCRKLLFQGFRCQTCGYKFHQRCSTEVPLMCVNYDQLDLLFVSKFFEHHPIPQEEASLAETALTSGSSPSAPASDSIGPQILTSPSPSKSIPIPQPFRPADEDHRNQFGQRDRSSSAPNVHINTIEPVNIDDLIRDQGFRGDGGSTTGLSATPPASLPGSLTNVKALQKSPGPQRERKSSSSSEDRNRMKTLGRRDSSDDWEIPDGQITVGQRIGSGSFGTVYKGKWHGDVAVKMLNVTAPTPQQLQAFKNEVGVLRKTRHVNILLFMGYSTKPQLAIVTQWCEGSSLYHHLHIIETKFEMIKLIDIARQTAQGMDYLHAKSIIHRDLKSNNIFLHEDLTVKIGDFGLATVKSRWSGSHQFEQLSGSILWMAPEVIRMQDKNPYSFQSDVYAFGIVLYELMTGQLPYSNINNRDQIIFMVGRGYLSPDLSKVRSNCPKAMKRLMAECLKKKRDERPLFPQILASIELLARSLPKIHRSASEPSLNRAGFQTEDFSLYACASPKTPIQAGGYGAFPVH

Tests used:
Assay in all cases: kinase-Nluc reporter destabilization hit call (1 = scored as downregulated) (binary); higher = compound decreases kinase abundance
Conditions in all cases: K562; 2-18 h
ABL1 = ABL1 (UniProt P00519)
AKT1 = AKT1 (UniProt P31749)
ALK = ALK (UniProt Q9UM73)
ARAF = ARAF (UniProt P10398)
AURKA = AURKA (UniProt O14965)
AURKB = AURKB (UniProt Q96GD4)
AURKC = AURKC (UniProt Q9UQB9)
BLK = BLK (UniProt P51451)
BMX = BMX (UniProt P51813)
BRAF = BRAF (UniProt P15056)

Measured: kinase-Nluc reporter destabilization hit call

COc1ccc(F)cc1C(=O)NCc1ccc(-c2nn([C@@H](C)C(F)(F)F)c(N)c2C(N)=O)cc1 [Pirtobrutinib] (10 µM)
inactive: ABL1 = 0 | AKT1 = 0 | ALK 0 | ARAF 0 | AURKA 0 | AURKB 0 | AURKC 0 | BLK 0 | BMX 0 | BRAF 0

O=C1NCCSc2c1sc1ccc(O)cc21 (2.5 µM)
inactive: ABL1 = 0 | AKT1 = 0 | ALK 0 | ARAF 0 | AURKA 0 | AURKB 0 | AURKC 0 | BLK 0 | BMX 0 | BRAF 0

COc1ccc(COc2cc3oc(=O)c4cc(C(C)O)ccc4c3cc2OC)cc1 (stereo not given) [Palomid 529] (2.5 µM)
inactive: ABL1 = 0 | AKT1 = 0 | ALK 0 | ARAF 0 | AURKA 0 | AURKB 0 | AURKC 0 | BLK 0 | BMX 0 | BRAF 0

CN(c1ccc(C(F)(F)F)cc1)S(=O)(=O)c1ccc(C(=O)Nc2nc(-c3ccccn3)cs2)cc1 (2.5 µM)
inactive: ABL1 = 0 | AKT1 = 0 | ALK 0 | ARAF 0 | AURKA 0 | AURKB 0 | AURKC 0 | BLK 0 | BMX 0 | BRAF 0

Three structures already listed, ordered by SMILES length, low to high:
O=C1NCCSc2c1sc1ccc(O)cc21 (2.5 µM)
inactive: ABL1 = 0 | AKT1 = 0 | ALK 0 | ARAF 0 | AURKA 0 | AURKB 0 | AURKC 0 | BLK 0 | BMX 0 | BRAF 0

CN(c1ccc(C(F)(F)F)cc1)S(=O)(=O)c1ccc(C(=O)Nc2nc(-c3ccccn3)cs2)cc1 (2.5 µM)
inactive: ABL1 = 0 | AKT1 = 0 | ALK 0 | ARAF 0 | AURKA 0 | AURKB 0 | AURKC 0 | BLK 0 | BMX 0 | BRAF 0

COc1ccc(F)cc1C(=O)NCc1ccc(-c2nn([C@@H](C)C(F)(F)F)c(N)c2C(N)=O)cc1 [Pirtobrutinib] (10 µM)
inactive: ABL1 = 0 | AKT1 = 0 | ALK 0 | ARAF 0 | AURKA 0 | AURKB 0 | AURKC 0 | BLK 0 | BMX 0 | BRAF 0

Continued.

Nc1nc2c(ncn2COCCO)c(=O)[nH]1 [Acyclovir] (10 µM)
inactive: ABL1 = 0 | AKT1 = 0 | ALK 0 | ARAF 0 | AURKA 0 | AURKB 0 | AURKC 0 | BLK 0 | BMX 0 | BRAF 0

CNC[C@@H](NC(=O)c1ccc(-c2nc([C@H]3CC[C@H](O)[C@@H](F)C3)cnc2N)cc1F)c1cc(F)cc(Br)c1 [Rineterkib] (10 µM)
inactive: ABL1 = 0 | AKT1 = 0 | ALK 0 | ARAF 0 | AURKA 0 | AURKB 0 | AURKC 0 | BLK 0 | BMX 0 | BRAF 0

Cn1c(=O)c(Oc2ccc(F)cc2F)cc2cnc(NC(CCO)CCO)nc21 [Pamapimod] (10 µM)
inactive: ABL1 = 0 | AKT1 = 0 | ALK 0 | ARAF 0 | AURKA 0 | AURKB 0 | AURKC 0 | BLK 0 | BMX 0 | BRAF 0

COc1ccc(-c2cnc3c(-c4cccc5ncccc45)cnn3c2)cc1 (10 µM)
inactive: ABL1 = 0 | AKT1 = 0 | ALK 0 | ARAF 0 | AURKA 0 | AURKB 0 | AURKC 0 | BLK 0 | BMX 0 | BRAF 0

C[C@]1(O)C[C@@](N)(c2ccc(-c3nc4n(c3-c3ccccc3)COc3ccncc3-4)cc2)C1 [TAS-117 (hydrochloride)] (10 µM)
inactive: ABL1 = 0 | AKT1 = 0 | ALK 0 | ARAF 0 | AURKA 0 | AURKB 0 | AURKC 0 | BLK 0 | BMX 0 | BRAF 0

O=C(CCc1ccc2n1[B-](F)(F)[N+]1=C(c3ccc[nH]3)C=CC1=C2)ON1C(=O)CCC1=O [Py-BODIPY-NHS ester] (2.5 µM)
inactive: ABL1 = 0 | AKT1 = 0 | ALK 0 | ARAF 0 | AURKA 0 | AURKB 0 | AURKC 0 | BLK 0 | BMX 0 | BRAF 0

Cc1c(Br)c(Br)c2c3c1nc(N1CCNCC1)n3CCC2 [SEL120-34A (monohydrochloride)] (2.5 µM)
inactive: ABL1 = 0 | AKT1 = 0 | ALK 0 | ARAF 0 | AURKA 0 | AURKB 0 | AURKC 0 | BLK 0 | BMX 0 | BRAF 0

CC(C)(O)c1cc2nc(-c3cnc(N)nc3)nc(N3CCOCC3)c2s1 (2.5 µM)
inactive: AKT1 = 0 | ALK 0 | ARAF 0 | AURKA 0 | AURKB 0 | AURKC 0 | BLK 0 | BMX 0 | BRAF 0
active: ABL1 = 1

Cc1ncc(F)c(Nc2n[nH]c3c2CN(C(=O)N2C[C@@H](C)N(CC4CCOCC4)C[C@@H]2C)C3(C)C)n1 (10 µM)
inactive: ABL1 = 0 | AKT1 = 0 | ALK 0 | ARAF 0 | AURKA 0 | AURKB 0 | AURKC 0 | BLK 0 | BMX 0 | BRAF 0

O=c1cc(N2CCOCC2)oc2c1ccc1ccccc12 (2 µM)
inactive: ABL1 = 0 | AKT1 = 0 | ALK 0 | ARAF 0 | AURKA 0 | AURKB 0 | AURKC 0 | BLK 0 | BMX 0 | BRAF 0

COc1cc(-c2cc(-c3cccc(O)c3)cnc2N)cc(OC)c1OC (2.5 µM)
inactive: ABL1 = 0 | AKT1 = 0 | ALK 0 | ARAF 0 | AURKA 0 | AURKB 0 | AURKC 0 | BLK 0 | BMX 0 | BRAF 0

NC(=O)c1ccc2nc(-c3ccc(C4(N)CCC4)cc3)c(-c3ccccc3)n2n1 (10 µM)
inactive: ABL1 = 0 | AKT1 = 0 | ALK 0 | ARAF 0 | AURKA 0 | AURKB 0 | AURKC 0 | BLK 0 | BMX 0 | BRAF 0

COc1cc(Nc2nc3ccccc3nc2NS(=O)(=O)c2ccc(NC(=O)c3ccc(C)c(OC)c3)cc2)cc(OC)c1 (10 µM)
inactive: ABL1 = 0 | AKT1 = 0 | ALK 0 | ARAF 0 | AURKA 0 | AURKB 0 | AURKC 0 | BLK 0 | BMX 0 | BRAF 0

O=c1sn(-c2cccc3ccccc23)c(=O)n1Cc1ccccc1 [Tideglusib] (10 µM)
inactive: ABL1 = 0 | AKT1 = 0 | ALK 0 | ARAF 0 | AURKA 0 | AURKB 0 | AURKC 0 | BLK 0 | BMX 0 | BRAF 0

O=c1[nH]nc(Sc2ncc([N+](=O)[O-])s2)n1-c1ccc2c(c1)OCCO2 (2.5 µM)
inactive: ABL1 = 0 | AKT1 = 0 | ALK 0 | ARAF 0 | AURKA 0 | AURKB 0 | AURKC 0 | BLK 0 | BMX 0 | BRAF 0

CCn1c(-c2nonc2N)nc2c(C#CCO)ncc(OCCCN)c21 [AKT Kinase Inhibitor] (10 µM)
inactive: ABL1 = 0 | AKT1 = 0 | ALK 0 | ARAF 0 | AURKA 0 | AURKB 0 | AURKC 0 | BLK 0 | BMX 0 | BRAF 0

C[C@@H]1O[C@@H](O[C@H]2[C@H](OC(=O)[C@]34CCC(C)(C)C[C@H]3C3=CC[C@@H]5[C@@]6(C)C[C@H](O)[C@H](O[C@@H]7O[C@H](CO)[C@@H](O)[C@H](O)[C@H]7O)C(CO)(CO)[C@@H]6CC[C@@]5(C)[C@]3(C)C[C@H]4O)OC[C@H](O)[C@@H]2O)[C@H](O)[C@H](O)[C@H]1O[C@@H]1OC[C@@H](O)[C@H](O[C@@H]2OC[C@](O)(CO)[C@H]2O)[C@H]1O [Platycodin D] (10 µM)
inactive: ABL1 = 0 | AKT1 = 0 | ALK 0 | ARAF 0 | AURKA 0 | AURKB 0 | AURKC 0 | BLK 0 | BMX 0 | BRAF 0

O=C1c2cccc(O)c2C(=O)c2c(O)cccc21 [Danthron] (10 µM)
inactive: ABL1 = 0 | AKT1 = 0 | ALK 0 | ARAF 0 | AURKA 0 | AURKB 0 | AURKC 0 | BLK 0 | BMX 0 | BRAF 0

Cc1ccc(-n2c(-c3ccc(O)cc3O)n[nH]c2=O)cc1 (10 µM)
inactive: ABL1 = 0 | AKT1 = 0 | ALK 0 | ARAF 0 | AURKA 0 | AURKB 0 | AURKC 0 | BLK 0 | BMX 0 | BRAF 0

Cn1cc(-c2cn3nccc3c(-c3cnn([C@]4(CC#N)C[C@@H](C#N)C4)c3)n2)cn1 (10 µM)
inactive: ABL1 = 0 | AKT1 = 0 | ALK 0 | ARAF 0 | AURKA 0 | AURKB 0 | AURKC 0 | BLK 0 | BMX 0 | BRAF 0

CCCCCC1CC1CC1CC1CCCCCCCC(=O)O (stereo not given) (10 µM)
inactive: ABL1 = 0 | AKT1 = 0 | ALK 0 | ARAF 0 | AURKA 0 | AURKB 0 | AURKC 0 | BLK 0 | BMX 0 | BRAF 0

C=CC(=O)Nc1cccc(Oc2nc(Nc3ccc(N4CCN(C)CC4)cc3)ncc2Cl)c1 (2.5 µM)
inactive: ABL1 = 0 | AKT1 = 0 | ALK 0 | ARAF 0 | AURKA 0 | AURKB 0 | AURKC 0 | BLK 0 | BMX 0 | BRAF 0
